Experiment: PAMPA gastrointestinal tract permeability
Format: in vitro ADME
Conditions: 8 h, 0.5 mM
Protocol: A 10 mM solution of each compound in DMSO was prepared and subsequently homogenized in a 5 mL flask with 4.75 mL PBS (pH 6.6) (10 mM). […] 180 μL of a PBS (pH 7.4)/DMSO (95:5) solution were then added to the wells of a 96-well receiver plate, and 5 μL of a L-α-phosphatidylcholine solution (20 mg/mL in dodecane) to the wells of a 96-well donor plate. After 5 min, 180 μL of the solutions containing each compound were added to the wells of the donor plate, in triplicate, and the donor plate was carefully placed over the receiver plate in a “sandwich-like” system, which was left stirring (50 rpm) for 8 h at rt in a sealed vessel containing 10 mL PBS (pH 7.4). Afterward, the donor plate was removed, and the content of the receiver plate was transferred to a UV reading plate, which was read using a microplate reader (SpectraMax 5 – Molecular Devices). A reference sample for the internal correction of the microplate reader was prepared using 180 μL of the PBS (pH 7.4)/DMSO (95:5) solution (adapted from refs and ). The optical density values obtained from the content of the receiver plate were compared with the ones obtained from readings performed with the initial solutions containing each compound, before their addition to the donor plate. […]

- GI Pe: 0.09 10^-6 cm/s
SMILES: CC(C)NCC(O)COc1ccc(CC(N)=O)cc1 (stereo not shown) [Atenolol, reference compound]
